Source: paper PMC6033466
Results are given in words; binding and its absence hold for the method and conditions named. Binding seen in cells or lysates may run through a third protein. Some binding calls cover weakened binding; strength is not graded here. Tags and fused reporters may be left off the sequences shown.

Assays:
Flag-USP8^C748A = molecular target: T1, Flag-USP8^C748A (UniProt Q80U87); experiment: co-IP; HEK293T cells co-transfected with GFP-CHMP1B and Flag-USP8 constructs; lysates immunoprecipitated with anti-GFP or anti-Flag antibodies, immunoblot with anti-GFP or anti-Flag
T1 sequence: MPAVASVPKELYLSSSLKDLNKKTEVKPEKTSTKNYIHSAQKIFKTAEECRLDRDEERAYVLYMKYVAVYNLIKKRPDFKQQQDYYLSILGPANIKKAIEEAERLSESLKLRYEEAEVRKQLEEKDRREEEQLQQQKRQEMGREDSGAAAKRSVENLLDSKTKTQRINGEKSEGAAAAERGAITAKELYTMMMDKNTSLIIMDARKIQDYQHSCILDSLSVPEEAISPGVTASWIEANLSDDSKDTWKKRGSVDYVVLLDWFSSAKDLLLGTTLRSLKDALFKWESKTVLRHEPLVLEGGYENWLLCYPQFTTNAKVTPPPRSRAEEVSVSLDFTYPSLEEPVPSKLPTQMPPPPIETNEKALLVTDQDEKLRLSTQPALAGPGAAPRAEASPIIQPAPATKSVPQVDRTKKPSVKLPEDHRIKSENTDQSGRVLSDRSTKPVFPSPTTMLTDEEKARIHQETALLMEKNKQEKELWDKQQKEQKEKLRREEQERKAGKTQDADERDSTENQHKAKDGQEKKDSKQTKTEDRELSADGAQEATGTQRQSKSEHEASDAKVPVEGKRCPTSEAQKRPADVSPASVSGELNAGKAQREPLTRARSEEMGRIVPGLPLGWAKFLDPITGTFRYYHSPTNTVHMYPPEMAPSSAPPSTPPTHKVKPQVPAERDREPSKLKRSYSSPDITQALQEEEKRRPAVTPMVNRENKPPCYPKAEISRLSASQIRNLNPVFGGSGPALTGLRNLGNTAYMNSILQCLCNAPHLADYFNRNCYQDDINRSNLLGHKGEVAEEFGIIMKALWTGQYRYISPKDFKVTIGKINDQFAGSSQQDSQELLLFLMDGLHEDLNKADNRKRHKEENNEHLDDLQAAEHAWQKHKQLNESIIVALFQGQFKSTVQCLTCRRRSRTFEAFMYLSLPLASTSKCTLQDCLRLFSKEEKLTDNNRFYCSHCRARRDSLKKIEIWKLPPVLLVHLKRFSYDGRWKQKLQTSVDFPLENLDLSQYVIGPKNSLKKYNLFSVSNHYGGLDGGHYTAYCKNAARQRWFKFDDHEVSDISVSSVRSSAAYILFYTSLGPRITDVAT

Flag-USP8 = molecular target: T2, Flag-USP8 (UniProt Q80U87); experiment: as above
T2 sequence: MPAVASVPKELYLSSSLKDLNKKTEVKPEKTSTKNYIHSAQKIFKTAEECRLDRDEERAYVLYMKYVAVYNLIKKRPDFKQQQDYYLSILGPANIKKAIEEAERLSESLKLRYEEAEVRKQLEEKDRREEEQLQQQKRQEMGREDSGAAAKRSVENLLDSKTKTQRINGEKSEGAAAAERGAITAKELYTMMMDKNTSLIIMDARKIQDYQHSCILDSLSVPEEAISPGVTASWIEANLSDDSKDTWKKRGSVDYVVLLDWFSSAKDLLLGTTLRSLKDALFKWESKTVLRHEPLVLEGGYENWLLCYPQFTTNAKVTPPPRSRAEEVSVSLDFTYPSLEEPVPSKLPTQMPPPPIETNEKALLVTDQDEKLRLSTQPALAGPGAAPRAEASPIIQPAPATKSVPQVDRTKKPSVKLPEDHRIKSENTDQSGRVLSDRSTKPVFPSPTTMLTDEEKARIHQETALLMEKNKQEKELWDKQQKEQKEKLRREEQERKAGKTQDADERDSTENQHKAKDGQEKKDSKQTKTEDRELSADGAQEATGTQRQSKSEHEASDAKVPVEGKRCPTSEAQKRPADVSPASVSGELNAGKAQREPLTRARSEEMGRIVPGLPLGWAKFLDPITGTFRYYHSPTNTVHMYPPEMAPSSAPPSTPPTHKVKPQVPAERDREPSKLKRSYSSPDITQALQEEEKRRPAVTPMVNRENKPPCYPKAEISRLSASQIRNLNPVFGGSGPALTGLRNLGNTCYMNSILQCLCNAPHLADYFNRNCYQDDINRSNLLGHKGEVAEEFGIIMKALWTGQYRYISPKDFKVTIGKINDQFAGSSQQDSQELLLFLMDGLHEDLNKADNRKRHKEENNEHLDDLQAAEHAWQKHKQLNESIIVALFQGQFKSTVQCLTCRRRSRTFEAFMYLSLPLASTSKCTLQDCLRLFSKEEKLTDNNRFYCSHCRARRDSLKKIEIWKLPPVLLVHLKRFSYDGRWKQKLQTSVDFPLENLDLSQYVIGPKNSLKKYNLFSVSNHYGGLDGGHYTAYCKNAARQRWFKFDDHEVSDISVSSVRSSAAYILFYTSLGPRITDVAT

Myc-VN-USP8 (human) = molecular target: T3, Myc-VN-USP8 (human) (UniProt P40818); experiment: split reporter; Venus complementation; fixed HeLa cells co-transfected with Myc-VN-USP8 and HA-VC-CHMP1B constructs; Venus spots counted per Myc and HA positive cell
T3 sequence: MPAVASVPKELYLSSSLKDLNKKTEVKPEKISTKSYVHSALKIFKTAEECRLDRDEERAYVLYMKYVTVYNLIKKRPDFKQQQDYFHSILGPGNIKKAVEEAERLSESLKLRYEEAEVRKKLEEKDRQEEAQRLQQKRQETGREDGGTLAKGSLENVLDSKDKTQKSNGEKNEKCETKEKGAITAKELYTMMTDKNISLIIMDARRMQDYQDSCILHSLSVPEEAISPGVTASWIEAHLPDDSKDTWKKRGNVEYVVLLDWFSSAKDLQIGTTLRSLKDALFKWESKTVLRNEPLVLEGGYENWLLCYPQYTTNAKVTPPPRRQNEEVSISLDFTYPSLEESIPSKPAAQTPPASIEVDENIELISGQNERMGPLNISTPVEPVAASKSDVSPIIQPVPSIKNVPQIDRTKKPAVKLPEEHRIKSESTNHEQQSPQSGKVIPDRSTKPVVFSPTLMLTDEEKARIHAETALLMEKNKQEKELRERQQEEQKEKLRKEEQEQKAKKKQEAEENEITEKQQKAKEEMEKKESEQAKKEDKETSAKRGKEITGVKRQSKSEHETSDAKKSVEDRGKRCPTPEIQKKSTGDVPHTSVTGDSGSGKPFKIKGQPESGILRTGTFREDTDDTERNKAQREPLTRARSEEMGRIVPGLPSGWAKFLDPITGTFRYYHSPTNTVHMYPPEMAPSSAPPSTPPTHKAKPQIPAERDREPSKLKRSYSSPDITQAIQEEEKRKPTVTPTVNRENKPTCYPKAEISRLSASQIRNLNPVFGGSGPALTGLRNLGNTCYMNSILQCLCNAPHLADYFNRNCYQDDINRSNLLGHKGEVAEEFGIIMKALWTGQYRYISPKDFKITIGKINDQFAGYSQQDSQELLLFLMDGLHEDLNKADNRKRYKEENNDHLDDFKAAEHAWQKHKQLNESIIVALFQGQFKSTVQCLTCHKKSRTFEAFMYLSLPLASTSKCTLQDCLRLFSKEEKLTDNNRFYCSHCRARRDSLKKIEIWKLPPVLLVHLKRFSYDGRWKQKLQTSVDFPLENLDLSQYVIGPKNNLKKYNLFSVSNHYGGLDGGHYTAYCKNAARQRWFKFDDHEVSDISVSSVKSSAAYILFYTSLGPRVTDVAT

binding (Flag-USP8^C748A)	binding (Flag-USP8)	binding (Myc-VN-USP8 (human))	Binder
binds	binds		GFP-CHMP1B (full length) (protein, UniProt Q7LBR1 1-199) MSNMEKHLFNLKFAAKELSRSAKKCDKEEKAEKAKIKKAIQKGNMEVARIHAENAIRQKNQAVNFLRMSARVDAVAARVQTAVTMGKVTKSMAGVVKSMDATLKTMNLEKISALMDKFEHQFETLDVQTQQMEDTMSSTTTLTTPQNQVDMLLQEMADEAGLDLNMELPQGQTGSVGTSVASAEQDELSQRLARLRDQV
	binds		GFP-CHMP1B α-helices 4, 5 and 6 (residues 105 to 199) (domain or fragment, UniProt Q7LBR1 105-199) TMNLEKISALMDKFEHQFETLDVQTQQMEDTMSSTTTLTTPQNQVDMLLQEMADEAGLDLNMELPQGQTGSVGTSVASAEQDELSQRLARLRDQV
		binds	HA-VC-CHMP1B (full length) (protein, UniProt Q7LBR1 1-199) MSNMEKHLFNLKFAAKELSRSAKKCDKEEKAEKAKIKKAIQKGNMEVARIHAENAIRQKNQAVNFLRMSARVDAVAARVQTAVTMGKVTKSMAGVVKSMDATLKTMNLEKISALMDKFEHQFETLDVQTQQMEDTMSSTTTLTTPQNQVDMLLQEMADEAGLDLNMELPQGQTGSVGTSVASAEQDELSQRLARLRDQV
